Data published in PubChem BioAssay AID330 (DTP/NCI, 2004).
The list shows only some results of the screen, not a fair sample: it covers a few groups of compounds. Not every dose and run of a compound is shown. T/C: endpoint of the treated group in % of that of the vehicle group. Some entries give survivors of the animals treated and no T/C: the source files T/C as zero there, which appears to mark a toxic dose or a test without result, not a measured value. Some doses without a T/C left all or most animals alive at the check, yet need not have been tolerated: the source hardly ever lists a survival T/C far under the control, and the zero likely stands for such cases as well. Survivors were counted at the toxicity check, usually on the fifth day, unless a day is given; later deaths do not show. Schedules are NCI's codes, read here as Q, the interval in days (D) or hours (H), X, the number of doses. Where survival is the endpoint, this PubChem deposit counts one and a half times the control or more as active, and values a quarter to a half above the control carry no call in these data; other NCI protocols may use other cut-offs. Some T/C values are followed by the survivors on the day toxicity was checked, most often the fifth; without a count or a note in brackets, all were alive then. Some entries were tested several times; the results are listed from low to high. Some entries show no survivor count and are marked so; the dose need not have been tolerated.

Test system: P388 leukemia ip, CD2F1 mice, survival T/C
Experiment: NCI In Vivo Anticancer Drug Screen. Data for tumor model P388 Leukemia (intraperitoneal) in CD2F1 (CDF1) mice
Conditions: T/C endpoint: median survival time, higher T/C = longer survival
[1] = dose: 25.0 mg/kg/injection, schedule: Q01DX009 (ip), vehicle: Klucel (hydroxypropylcellulose) (HPC)
[2] = dose: 100.0 mg/kg/injection, schedule: Q01DX009 (ip), vehicle: Klucel (hydroxypropylcellulose) (HPC)
[3] = dose: 60.0 mg/kg/injection, schedule: Q01DX005 (ip), vehicle: saline with Tween-80
[4] = dose: 120.0 mg/kg/injection, schedule: Q01DX005 (ip), vehicle: saline with Tween-80
[5] = dose: 240.0 mg/kg/injection, schedule: Q01DX005 (ip), vehicle: saline with Tween-80
[6] = dose: 50.0 mg/kg/injection, schedule: Q01DX009 (ip), vehicle: saline with Tween-80
[7] = dose: 100.0 mg/kg/injection, schedule: Q01DX009 (ip), vehicle: saline with Tween-80
[8] = dose: 200.0 mg/kg/injection, schedule: Q01DX009 (ip), vehicle: saline with Tween-80
[9] = dose: 25.0 mg/kg/injection, schedule: Q01DX009 (ip), vehicle: saline with Tween-80
[10] = dose: 25.0 mg/kg/injection, schedule: Q01DX001 (ip), vehicle: saline with Tween-80
[11] = dose: 50.0 mg/kg/injection, schedule: Q01DX001 (ip), vehicle: saline with Tween-80
[12] = dose: 100.0 mg/kg/injection, schedule: Q01DX001 (ip), vehicle: saline with Tween-80
[13] = dose: 50.0 mg/kg/injection, schedule: Q01DX005 (ip), vehicle: saline with Tween-80
[14] = dose: 100.0 mg/kg/injection, schedule: Q01DX005 (ip), vehicle: saline with Tween-80
[15] = dose: 200.0 mg/kg/injection, schedule: Q01DX005 (ip), vehicle: saline with Tween-80

## COc1cc([N+](=O)[O-])c2nc(C(O)C[N+](=O)[O-])ccc2c1[N+](=O)[O-] (stereo not given)
dose: 3.13 mg/kg/injection, schedule: Q01DX009 (ip), vehicle: distilled water + Tween-80
  T/C: 106 % of control
dose: 6.25 mg/kg/injection, schedule: Q01DX009 (ip), vehicle: distilled water + Tween-80
  T/C: 100 % of control
dose: 12.5 mg/kg/injection, schedule: Q01DX009 (ip), vehicle: distilled water + Tween-80
  T/C: 98 and 104 % of control
dose: 25.0 mg/kg/injection, schedule: Q01DX009 (ip), vehicle: distilled water + Tween-80
  T/C: 88 and 100 % of control
dose: 50.0 mg/kg/injection, schedule: Q01DX009 (ip), vehicle: distilled water + Tween-80
  T/C: 90 and 98 % of control [4 of 5 alive]
dose: 100.0 mg/kg/injection, schedule: Q01DX009 (ip), vehicle: distilled water + Tween-80
  T/C: 98 % of control [4 of 5 alive]
dose: 200.0 mg/kg/injection, schedule: Q01DX009 (ip), vehicle: distilled water + Tween-80
  survivor count: 2 of 5

## O=C1C=C(NCCCl)C(=O)C=C1NCCCl
[1]
  T/C: 93 % of control
dose: 50.0 mg/kg/injection, schedule: Q01DX009 (ip), vehicle: Klucel (hydroxypropylcellulose) (HPC)
  T/C: 97 and 109 % of control
[2]
  T/C: 128 % of control
  survivor count: 6 of 6
dose: 200.0 mg/kg/injection, schedule: Q01DX009 (ip), vehicle: Klucel (hydroxypropylcellulose) (HPC)
  T/C: 98 % of control [5 of 6 alive]

## CCOC(=O)NC(c1ccccc1[N+](=O)[O-])P(=O)(O)Nc1ncn[nH]1 (stereo not given)
[3]
  T/C: 98 % of control
[4]
  T/C: 101 % of control
[5]
  T/C: 95 % of control

## Cc1cc(N(CCCl)CCCl)ccc1N
dose: 0.39 mg/kg/injection, schedule: Q01DX009 (ip), vehicle: Klucel (hydroxypropylcellulose) (HPC)
  T/C: 109 % of control
dose: 0.78 mg/kg/injection, schedule: Q01DX009 (ip), vehicle: Klucel (hydroxypropylcellulose) (HPC)
  T/C: 135 and 158 % of control
dose: 1.56 mg/kg/injection, schedule: Q01DX009 (ip), vehicle: Klucel (hydroxypropylcellulose) (HPC)
  T/C: 127 and 180 % of control
dose: 3.13 mg/kg/injection, schedule: Q01DX009 (ip), vehicle: Klucel (hydroxypropylcellulose) (HPC)
  survivor count: 6 of 6
dose: 6.25 mg/kg/injection, schedule: Q01DX009 (ip), vehicle: Klucel (hydroxypropylcellulose) (HPC)
  survivor count: 6 of 6
dose: 12.5 mg/kg/injection, schedule: Q01DX009 (ip), vehicle: Klucel (hydroxypropylcellulose) (HPC)
  survivor count: 0 of 6
[1]
  survivor count: 0 of 6

## O=P1(Cl)Oc2ccccc2-c2ccccc2O1
dose: 25.0 mg/kg/injection, schedule: Q01DX009 (ip), vehicle: saline
  T/C: 88 % of control
dose: 50.0 mg/kg/injection, schedule: Q01DX009 (ip), vehicle: saline
  T/C: 89 % of control
dose: 100.0 mg/kg/injection, schedule: Q01DX009 (ip), vehicle: saline
  T/C: 93 % of control

## CC(C)OP(C)(=O)O.[Th]
[6]
  T/C: 103 % of control [survivor count not shown]
[7]
  T/C: 105 % of control [survivor count not shown]
[8]
  T/C: 99 % of control [survivor count not shown]

## NC(C(=O)O)c1cccc(N(CCCl)CCCl)c1 (stereo not given)
dose: 50.0 mg/kg/injection, schedule: Q01DX001 (ip), vehicle: Klucel (hydroxypropylcellulose) (HPC)
  T/C: 135 % of control
dose: 100.0 mg/kg/injection, schedule: Q01DX001 (ip), vehicle: Klucel (hydroxypropylcellulose) (HPC)
  T/C: 135 % of control
dose: 200.0 mg/kg/injection, schedule: Q01DX001 (ip), vehicle: Klucel (hydroxypropylcellulose) (HPC)
  T/C: 145 % of control

## ClCCN(CCCl)c1ccc(CN2CCCCC2)cc1.O=[N+]([O-])c1cc([N+](=O)[O-])c(O)c([N+](=O)[O-])c1
dose: 10.0 mg/kg/injection, schedule: Q01DX009 (ip), vehicle: saline with Tween-80
  T/C: 104 % of control
dose: 20.0 mg/kg/injection, schedule: Q01DX009 (ip), vehicle: saline with Tween-80
  T/C: 106 % of control
[9]
  T/C: 118 % of control
dose: 40.0 mg/kg/injection, schedule: Q01DX009 (ip), vehicle: saline with Tween-80
  T/C: 131 % of control
[6]
  T/C: 125 % of control
dose: 80.0 mg/kg/injection, schedule: Q01DX009 (ip), vehicle: saline with Tween-80
  T/C: 136 % of control
[7]
  T/C: 132 % of control

## CC(Br)CN(CC(C)Br)c1cccc(C(=O)O)c1 (stereo not given)
dose: 1.56 mg/kg/injection, schedule: Q01DX009 (ip), vehicle: saline with Tween-80
  T/C: 150 and 170 % of control
dose: 3.12 mg/kg/injection, schedule: Q01DX009 (ip), vehicle: saline with Tween-80
  T/C: 148 and 158 % of control
dose: 6.25 mg/kg/injection, schedule: Q01DX009 (ip), vehicle: saline with Tween-80
  T/C: 90 [5 of 6 alive], 166, 169 % of control
dose: 12.5 mg/kg/injection, schedule: Q01DX009 (ip), vehicle: saline with Tween-80
  survivor count: 5 of 6
[9]
  survivor count: 1 of 6
[6]
  survivor count: 0 of 6
[7]
  survivor count: 0 of 6
[8]
  survivor count: 0 of 6

## CC(C)OP(C)(=O)O.[Ga]
[10]
  T/C: 105 % of control [survivor count not shown]
[11]
  T/C: 103 % of control [survivor count not shown]
[12]
  T/C: 109 % of control [survivor count not shown]
dose: 200.0 mg/kg/injection, schedule: Q01DX001 (ip), vehicle: saline with Tween-80
  T/C: 100 % of control [survivor count not shown]
dose: 400.0 mg/kg/injection, schedule: Q01DX001 (ip), vehicle: saline with Tween-80
  T/C: 95 % of control [survivor count not shown]

## O=[N+]([O-])c1cccc2c1no[n+]2[O-]
dose: 6.25 mg/kg/injection, schedule: Q01DX005 (ip), vehicle: saline with Tween-80
  T/C: 118 % of control
dose: 12.5 mg/kg/injection, schedule: Q01DX005 (ip), vehicle: saline with Tween-80
  T/C: 114 % of control
dose: 25.0 mg/kg/injection, schedule: Q01DX005 (ip), vehicle: saline with Tween-80
  survivor count: 5 of 6
[13]
  survivor count: 3 of 6
[14]
  survivor count: 1 of 6
[15]
  survivor count: 0 of 6

## O=C(O)C1COP(=O)(N(CCCl)CCCl)N1 (stereo not given)
dose: 12.5 mg/kg/injection, schedule: Q01DX001 (ip), vehicle: saline with Tween-80
  T/C: 99 % of control
[10]
  T/C: 100 % of control
[11]
  T/C: 101 % of control
[12]
  T/C: 105 % of control

## CC(C)CO[P+](=O)OCC(C)C
dose: 50.0 mg/kg/injection, schedule: Q04DX003 (ip), vehicle: saline
  T/C: 100 % of control
dose: 100.0 mg/kg/injection, schedule: Q04DX003 (ip), vehicle: saline
  T/C: 100 % of control
dose: 200.0 mg/kg/injection, schedule: Q04DX003 (ip), vehicle: saline
  T/C: 120 % of control

## O=[N+]([O-])c1cccc(S(=O)(=O)N/N=C/c2cc([N+](=O)[O-])cc([N+](=O)[O-])c2O)c1
[3]
  T/C: 107 % of control
[4]
  T/C: 103 % of control
[5]
  survivor count: 1 of 6

## N#C/C(=C\c1ccc(N(CCBr)CCBr)cc1)C(N)=O
dose: 0.5 mg/kg/injection, schedule: Q01DX009 (ip), vehicle: saline
  T/C: 133 % of control
dose: 1.0 mg/kg/injection, schedule: Q01DX009 (ip), vehicle: saline
  T/C: 150 % of control
dose: 2.0 mg/kg/injection, schedule: Q01DX009 (ip), vehicle: saline
  T/C: 164 % of control
dose: 4.0 mg/kg/injection, schedule: Q01DX009 (ip), vehicle: saline
  T/C: 198 % of control
dose: 8.0 mg/kg/injection, schedule: Q01DX009 (ip), vehicle: saline
  T/C: 171 % of control

## O=C(c1ccc(O)cc1O)c1c([N+](=O)[O-])cc([N+](=O)[O-])cc1[N+](=O)[O-]
[13]
  T/C: 99 % of control
[14]
  T/C: 97 % of control
[15]
  T/C: 99 % of control
